Molecular target: D(2) dopamine receptor (Rattus norvegicus, UniProt P61169)
Experiment: Competitive binding assay against Dopamine receptor D2 in rat striatal membranes and [125I]-IBF radioligand
Format: cell membranes, Striatum, Membrane

Amino acid sequences for entries named in this document (tags omitted).
UniProt P61169, whole entry: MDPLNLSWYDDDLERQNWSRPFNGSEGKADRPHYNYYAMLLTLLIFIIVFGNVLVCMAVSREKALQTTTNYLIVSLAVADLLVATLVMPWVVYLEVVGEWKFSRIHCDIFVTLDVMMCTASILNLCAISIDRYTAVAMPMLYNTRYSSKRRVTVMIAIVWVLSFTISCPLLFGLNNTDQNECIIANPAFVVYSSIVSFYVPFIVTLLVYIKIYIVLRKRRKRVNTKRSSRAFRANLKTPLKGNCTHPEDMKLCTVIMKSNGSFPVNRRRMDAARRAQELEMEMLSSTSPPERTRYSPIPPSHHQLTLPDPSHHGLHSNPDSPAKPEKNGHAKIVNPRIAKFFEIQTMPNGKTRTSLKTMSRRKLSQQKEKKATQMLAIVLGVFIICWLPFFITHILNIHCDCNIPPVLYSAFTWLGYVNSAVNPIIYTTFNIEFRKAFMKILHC

Ki: > 10 µM
SMILES: CC(C)NCC(O)COc1cccc2ccccc12 (stereo unspecified) [PROPRANOLOL]

— ChEMBL document CHEMBL1125116 (J Med Chem, 1990)
